Data as given in publication PMC5851652.
Where two headings read alike, the source gives them in different places. Results are given in words; binding and its absence hold for the method and conditions named. In cells and extracts the contact can be indirect. For some assays here: Sequences can lack the tags named with a protein.

Protein sequences, listed by entry. Tags and fused reporters are not part of them. Residues count along the entry.
UniProt P03495, residues 203-237: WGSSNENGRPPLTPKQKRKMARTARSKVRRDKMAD

What was measured:
[1] = target: LacZ-myc (beta-galactosidase) [β-galactosidase: P00722]; assay: co-IP; anti-myc immunoprecipitation of RIPA lysates of co-transfected 293T cells; immunoblot with anti-V5 and anti-myc
human OASL-V5 WT (human) = target: T1, human OASL-V5 WT (human) (UniProt Q15646); assay: co-IP
T1 sequence: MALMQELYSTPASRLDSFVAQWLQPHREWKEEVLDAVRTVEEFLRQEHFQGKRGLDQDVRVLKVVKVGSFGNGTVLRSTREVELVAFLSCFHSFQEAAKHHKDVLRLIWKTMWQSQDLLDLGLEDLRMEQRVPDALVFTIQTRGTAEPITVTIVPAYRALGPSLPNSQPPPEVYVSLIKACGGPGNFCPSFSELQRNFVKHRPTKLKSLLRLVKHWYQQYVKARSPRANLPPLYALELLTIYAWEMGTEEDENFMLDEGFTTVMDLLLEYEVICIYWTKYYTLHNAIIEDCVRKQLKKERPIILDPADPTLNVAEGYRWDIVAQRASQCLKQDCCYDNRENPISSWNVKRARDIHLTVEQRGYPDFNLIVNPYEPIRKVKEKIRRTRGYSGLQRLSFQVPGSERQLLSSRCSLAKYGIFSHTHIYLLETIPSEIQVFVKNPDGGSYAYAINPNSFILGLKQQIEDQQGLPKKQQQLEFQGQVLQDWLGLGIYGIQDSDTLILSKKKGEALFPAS

[2] = target: GFP-NS1A(203-237) (influenza A/Udorn/72) (UniProt P03495); assay: co-IP
[3] = target: LacZ-myc (beta-galactosidase) [β-galactosidase: P00722]; assay: co-IP; anti-myc immunoprecipitation of RIPA lysates of co-transfected 293T cells; immunoblot with anti-V5 and anti-myc; remark: listed apart in the source

OASL V67G-V5 (from UniProt Q15646 1-514)
binding [1]: no binding

OASL E81A-V5 (from UniProt Q15646 1-514)
binding [1]: no binding

OASL N72K-V5 (from UniProt Q15646 1-514)
binding [1]: no binding

OASL R45E/K66E/R196E/K200E-V5 (from UniProt Q15646 1-514)
binding [1]: no binding

OASL K66E-V5 (from UniProt Q15646 1-514)
binding [1]: no binding

GFP-NS1A(203-237) (from UniProt P03495 203-237) (domain or fragment)
binding (human OASL-V5 WT (human)): no binding

OASL T152A-V5 (from UniProt Q15646 1-514)
binding [1]: no binding

OASL E83A-V5 (from UniProt Q15646 1-514)
binding [1]: no binding

OASL K63E-V5 (from UniProt Q15646 1-514)
binding [1]: no binding

B1: human OASL-V5 WT (protein, UniProt Q15646 1-514)
chain: MALMQELYSTPASRLDSFVAQWLQPHREWKEEVLDAVRTVEEFLRQEHFQGKRGLDQDVRVLKVVKVGSFGNGTVLRSTREVELVAFLSCFHSFQEAAKHHKDVLRLIWKTMWQSQDLLDLGLEDLRMEQRVPDALVFTIQTRGTAEPITVTIVPAYRALGPSLPNSQPPPEVYVSLIKACGGPGNFCPSFSELQRNFVKHRPTKLKSLLRLVKHWYQQYVKARSPRANLPPLYALELLTIYAWEMGTEEDENFMLDEGFTTVMDLLLEYEVICIYWTKYYTLHNAIIEDCVRKQLKKERPIILDPADPTLNVAEGYRWDIVAQRASQCLKQDCCYDNRENPISSWNVKRARDIHLTVEQRGYPDFNLIVNPYEPIRKVKEKIRRTRGYSGLQRLSFQVPGSERQLLSSRCSLAKYGIFSHTHIYLLETIPSEIQVFVKNPDGGSYAYAINPNSFILGLKQQIEDQQGLPKKQQQLEFQGQVLQDWLGLGIYGIQDSDTLILSKKKGEALFPAS
binding [2]: no binding | binding [3]: no binding
